Results are given in words; binding and its absence hold for the method and conditions named. Binding seen in cells or lysates may run through a third protein. These calls come from enrichment with a bait or labelling near it, and not all partners need be listed. Tags and fused reporters may be left off the sequences shown.
T1: ANKLE2–GFP (human) (UniProt Q86XL3)
T1 sequence: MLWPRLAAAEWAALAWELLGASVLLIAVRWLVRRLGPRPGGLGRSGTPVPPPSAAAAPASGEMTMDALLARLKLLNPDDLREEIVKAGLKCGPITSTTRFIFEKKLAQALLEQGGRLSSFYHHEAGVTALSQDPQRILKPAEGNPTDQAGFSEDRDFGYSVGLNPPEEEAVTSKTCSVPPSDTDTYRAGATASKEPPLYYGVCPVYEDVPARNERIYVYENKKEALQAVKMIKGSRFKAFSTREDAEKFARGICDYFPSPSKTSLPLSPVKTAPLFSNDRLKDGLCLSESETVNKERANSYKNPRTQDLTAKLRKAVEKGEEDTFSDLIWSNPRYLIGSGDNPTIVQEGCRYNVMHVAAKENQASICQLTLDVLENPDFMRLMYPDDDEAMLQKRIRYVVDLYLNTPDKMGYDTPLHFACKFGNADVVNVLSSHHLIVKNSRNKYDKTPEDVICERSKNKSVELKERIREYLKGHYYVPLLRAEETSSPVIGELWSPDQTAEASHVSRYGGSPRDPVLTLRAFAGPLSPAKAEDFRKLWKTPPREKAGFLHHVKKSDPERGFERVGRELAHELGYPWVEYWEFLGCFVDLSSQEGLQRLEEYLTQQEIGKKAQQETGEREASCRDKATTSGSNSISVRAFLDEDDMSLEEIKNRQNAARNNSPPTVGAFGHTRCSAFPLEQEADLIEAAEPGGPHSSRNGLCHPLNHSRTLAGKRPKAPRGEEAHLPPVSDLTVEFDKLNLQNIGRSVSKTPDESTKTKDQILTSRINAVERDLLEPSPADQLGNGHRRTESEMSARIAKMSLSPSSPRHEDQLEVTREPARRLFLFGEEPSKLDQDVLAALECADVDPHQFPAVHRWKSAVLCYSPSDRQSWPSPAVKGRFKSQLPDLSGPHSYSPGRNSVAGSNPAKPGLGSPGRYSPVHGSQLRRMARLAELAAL

The chains behind the UniProt entries cited, without tags or fusion partners.
UniProt P53618: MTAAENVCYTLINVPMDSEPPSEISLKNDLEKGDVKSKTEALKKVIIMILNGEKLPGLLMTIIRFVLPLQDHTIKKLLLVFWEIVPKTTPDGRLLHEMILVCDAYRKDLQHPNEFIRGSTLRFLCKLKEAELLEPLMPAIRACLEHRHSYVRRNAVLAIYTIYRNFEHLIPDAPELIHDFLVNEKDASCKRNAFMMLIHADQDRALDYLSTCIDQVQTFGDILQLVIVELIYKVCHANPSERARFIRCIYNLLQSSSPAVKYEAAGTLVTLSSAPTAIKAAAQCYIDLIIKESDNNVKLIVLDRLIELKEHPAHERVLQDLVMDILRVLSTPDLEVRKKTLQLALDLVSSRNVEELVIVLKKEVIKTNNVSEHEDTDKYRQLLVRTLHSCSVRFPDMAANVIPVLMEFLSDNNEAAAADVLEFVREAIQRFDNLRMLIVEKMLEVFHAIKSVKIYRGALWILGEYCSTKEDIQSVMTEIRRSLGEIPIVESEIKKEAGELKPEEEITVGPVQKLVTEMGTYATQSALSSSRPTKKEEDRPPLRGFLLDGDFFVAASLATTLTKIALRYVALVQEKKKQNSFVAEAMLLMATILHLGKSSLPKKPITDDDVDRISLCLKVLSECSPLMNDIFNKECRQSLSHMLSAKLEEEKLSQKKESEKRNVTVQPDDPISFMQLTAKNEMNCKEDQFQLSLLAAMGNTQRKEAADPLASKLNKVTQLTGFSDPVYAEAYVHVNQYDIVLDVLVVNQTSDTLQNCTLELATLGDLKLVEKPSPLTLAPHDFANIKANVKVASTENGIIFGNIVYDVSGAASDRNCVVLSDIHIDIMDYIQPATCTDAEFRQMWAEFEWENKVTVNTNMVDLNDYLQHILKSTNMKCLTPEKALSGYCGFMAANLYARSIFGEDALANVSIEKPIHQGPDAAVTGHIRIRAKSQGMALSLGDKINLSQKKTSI
UniProt Q13547: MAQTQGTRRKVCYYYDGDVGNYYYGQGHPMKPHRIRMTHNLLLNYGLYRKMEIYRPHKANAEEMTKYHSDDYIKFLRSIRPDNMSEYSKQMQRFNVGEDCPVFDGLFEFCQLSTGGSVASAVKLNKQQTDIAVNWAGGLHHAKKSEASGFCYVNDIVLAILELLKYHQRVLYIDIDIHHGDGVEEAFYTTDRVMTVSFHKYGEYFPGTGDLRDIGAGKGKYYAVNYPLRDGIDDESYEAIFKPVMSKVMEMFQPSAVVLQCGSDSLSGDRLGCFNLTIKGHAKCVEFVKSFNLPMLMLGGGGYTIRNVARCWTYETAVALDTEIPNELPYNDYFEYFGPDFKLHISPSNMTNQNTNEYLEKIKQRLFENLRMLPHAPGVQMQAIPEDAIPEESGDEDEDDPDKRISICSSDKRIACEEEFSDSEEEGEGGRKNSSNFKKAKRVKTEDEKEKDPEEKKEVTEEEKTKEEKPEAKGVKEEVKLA
UniProt Q14739: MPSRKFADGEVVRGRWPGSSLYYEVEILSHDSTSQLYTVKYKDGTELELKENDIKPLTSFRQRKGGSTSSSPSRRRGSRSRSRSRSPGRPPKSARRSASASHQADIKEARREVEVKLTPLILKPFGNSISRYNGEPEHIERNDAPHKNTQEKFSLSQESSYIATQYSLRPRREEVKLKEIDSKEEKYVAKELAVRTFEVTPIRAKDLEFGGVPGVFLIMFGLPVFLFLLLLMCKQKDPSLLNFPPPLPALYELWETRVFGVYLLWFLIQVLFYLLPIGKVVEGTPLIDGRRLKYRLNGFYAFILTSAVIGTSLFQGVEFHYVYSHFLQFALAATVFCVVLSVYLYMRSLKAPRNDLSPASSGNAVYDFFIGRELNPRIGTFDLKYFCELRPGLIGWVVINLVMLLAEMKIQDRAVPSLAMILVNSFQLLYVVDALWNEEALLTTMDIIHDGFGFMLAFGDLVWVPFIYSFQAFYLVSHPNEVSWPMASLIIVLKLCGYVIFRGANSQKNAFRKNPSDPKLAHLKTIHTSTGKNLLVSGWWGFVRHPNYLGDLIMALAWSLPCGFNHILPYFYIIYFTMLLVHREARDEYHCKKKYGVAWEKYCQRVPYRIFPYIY
UniProt P50990: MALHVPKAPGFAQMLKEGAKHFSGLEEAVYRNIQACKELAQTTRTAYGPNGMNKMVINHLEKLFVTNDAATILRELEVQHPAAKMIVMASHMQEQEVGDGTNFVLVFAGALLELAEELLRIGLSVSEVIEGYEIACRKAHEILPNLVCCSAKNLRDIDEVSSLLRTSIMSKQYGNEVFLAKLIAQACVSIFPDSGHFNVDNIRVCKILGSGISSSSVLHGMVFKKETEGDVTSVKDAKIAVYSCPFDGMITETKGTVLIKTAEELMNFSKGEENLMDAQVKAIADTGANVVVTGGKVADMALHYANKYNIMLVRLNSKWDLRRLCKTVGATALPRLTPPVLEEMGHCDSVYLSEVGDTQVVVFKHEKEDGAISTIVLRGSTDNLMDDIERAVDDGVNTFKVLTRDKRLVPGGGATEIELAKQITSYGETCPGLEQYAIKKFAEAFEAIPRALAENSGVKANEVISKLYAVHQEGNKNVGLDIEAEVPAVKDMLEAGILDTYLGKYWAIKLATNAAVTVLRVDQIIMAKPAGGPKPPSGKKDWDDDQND
UniProt P68371: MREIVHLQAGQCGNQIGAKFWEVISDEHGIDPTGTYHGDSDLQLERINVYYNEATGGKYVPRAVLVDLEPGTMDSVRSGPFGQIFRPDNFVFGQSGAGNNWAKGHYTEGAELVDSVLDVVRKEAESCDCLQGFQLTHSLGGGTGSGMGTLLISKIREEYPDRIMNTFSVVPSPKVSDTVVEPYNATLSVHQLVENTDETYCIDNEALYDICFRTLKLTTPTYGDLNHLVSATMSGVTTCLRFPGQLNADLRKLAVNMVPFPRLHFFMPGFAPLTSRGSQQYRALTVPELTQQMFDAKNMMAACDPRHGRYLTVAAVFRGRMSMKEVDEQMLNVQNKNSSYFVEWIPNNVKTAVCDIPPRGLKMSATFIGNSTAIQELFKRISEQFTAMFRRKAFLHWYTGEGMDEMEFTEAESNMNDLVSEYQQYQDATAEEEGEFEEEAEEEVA
UniProt P18754: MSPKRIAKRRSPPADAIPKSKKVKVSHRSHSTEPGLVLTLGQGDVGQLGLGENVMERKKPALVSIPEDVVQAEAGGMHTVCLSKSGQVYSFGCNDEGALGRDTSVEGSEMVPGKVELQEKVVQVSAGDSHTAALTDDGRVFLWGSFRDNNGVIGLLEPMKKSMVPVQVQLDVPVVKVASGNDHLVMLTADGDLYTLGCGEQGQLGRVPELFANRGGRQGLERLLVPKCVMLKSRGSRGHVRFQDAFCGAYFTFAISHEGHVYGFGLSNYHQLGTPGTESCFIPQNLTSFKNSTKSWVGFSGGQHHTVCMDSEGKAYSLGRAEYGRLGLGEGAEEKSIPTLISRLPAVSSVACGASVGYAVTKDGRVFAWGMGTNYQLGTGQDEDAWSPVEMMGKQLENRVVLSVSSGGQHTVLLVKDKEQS
UniProt Q15003: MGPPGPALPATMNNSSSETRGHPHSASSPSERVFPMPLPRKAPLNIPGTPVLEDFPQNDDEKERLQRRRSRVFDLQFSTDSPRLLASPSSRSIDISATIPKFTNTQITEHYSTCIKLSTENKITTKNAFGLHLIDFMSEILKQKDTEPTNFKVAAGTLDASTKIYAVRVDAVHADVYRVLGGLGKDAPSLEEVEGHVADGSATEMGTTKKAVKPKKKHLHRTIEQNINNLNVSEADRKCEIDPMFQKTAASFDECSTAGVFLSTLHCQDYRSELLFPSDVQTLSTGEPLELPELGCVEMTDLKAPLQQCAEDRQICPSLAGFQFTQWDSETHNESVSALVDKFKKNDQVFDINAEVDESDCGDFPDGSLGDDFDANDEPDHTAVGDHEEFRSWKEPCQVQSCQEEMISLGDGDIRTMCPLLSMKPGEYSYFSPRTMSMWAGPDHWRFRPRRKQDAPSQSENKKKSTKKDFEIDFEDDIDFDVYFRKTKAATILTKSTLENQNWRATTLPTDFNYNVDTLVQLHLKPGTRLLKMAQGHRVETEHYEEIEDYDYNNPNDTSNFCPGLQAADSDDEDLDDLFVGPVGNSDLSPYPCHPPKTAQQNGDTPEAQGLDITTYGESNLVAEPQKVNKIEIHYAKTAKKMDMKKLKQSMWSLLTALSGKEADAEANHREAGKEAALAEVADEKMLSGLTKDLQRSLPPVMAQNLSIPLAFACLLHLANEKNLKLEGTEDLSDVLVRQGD

T2: HA-STREP-tagged SIRT2 (Sirtuin 2) (UniProt Q8IXJ6)
T2 sequence: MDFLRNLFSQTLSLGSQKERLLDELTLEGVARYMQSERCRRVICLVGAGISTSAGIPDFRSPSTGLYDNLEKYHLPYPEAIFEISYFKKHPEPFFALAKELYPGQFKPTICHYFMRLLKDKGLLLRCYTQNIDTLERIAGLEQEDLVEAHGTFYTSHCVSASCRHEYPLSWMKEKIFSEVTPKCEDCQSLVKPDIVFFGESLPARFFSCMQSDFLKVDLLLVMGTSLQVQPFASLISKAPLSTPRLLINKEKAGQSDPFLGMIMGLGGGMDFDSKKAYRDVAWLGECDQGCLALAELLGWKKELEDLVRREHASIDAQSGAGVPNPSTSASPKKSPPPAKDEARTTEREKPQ

T3: ANKLE2–GFP (human), Q86XL3
T3 chain: T1 sequence

B1: SIRT2 (endogenous, found with ANKLE2–GFP) (enzyme, UniProt Q8IXJ6 1-389)
chain: MAEPDPSHPLETQAGKVQEAQDSDSDSEGGAAGGEADMDFLRNLFSQTLSLGSQKERLLDELTLEGVARYMQSERCRRVICLVGAGISTSAGIPDFRSPSTGLYDNLEKYHLPYPEAIFEISYFKKHPEPFFALAKELYPGQFKPTICHYFMRLLKDKGLLLRCYTQNIDTLERIAGLEQEDLVEAHGTFYTSHCVSASCRHEYPLSWMKEKIFSEVTPKCEDCQSLVKPDIVFFGESLPARFFSCMQSDFLKVDLLLVMGTSLQVQPFASLISKAPLSTPRLLINKEKAGQSDPFLGMIMGLGGGMDFDSKKAYRDVAWLGECDQGCLALAELLGWKKELEDLVRREHASIDAQSGAGVPNPSTSASPKKSPPPAKDEARTTEREKPQ
B2: ankyrin and LEM domain-containing protein 2 (ANKLE2), endogenous (protein, UniProt Q86XL3 1-938)
chain: T1 sequence
B3: kinetochore-associated protein SKAP (also known as KNSTRN) (endogenous prey of the screen) (protein, UniProt Q9Y448 1-316)
chain: MAAPEAPPLDRVFRTTWLSTECDSHPLPPSYRKFLFETQAADLAGGTTVAAGNLLNESEKDCGQDRRAPGVQPCRLVTMTSVVKTVYSLQPPSALSGGQPADTQTRATSKSLLPVRSKEVDVSKQLHSGGPENDVTKITKLRRENGQMKATDTATRRNVRKGYKPLSKQKSEEELKDKNQLLEAVNKQLHQKLTETQGELKDLTQKVELLEKFRDNCLAILESKGLDPALGSETLASRQESTTDHMDSMLLLETLQEELKLFNETAKKQMEELQALKVKLEMKEERVRFLEQQTLCNNQVNDLTTALKEMEQLLEM
B4: coatomer complex protein COPG2 (endogenous prey of the screen) (protein, UniProt Q9UBF2 1-871)
chain: MIKKFDKKDEESGSGSNPFQHLEKSAVLQEARIFNETPINPRRCLHILTKILYLLNQGEHFGTTEATEAFFAMTRLFQSNDQTLRRMCYLTIKEMATISEDVIIVTSSLTKDMTGKEDVYRGPAIRALCRITDGTMLQAIERYMKQAIVDKVSSVSSSALVSSLHMMKISYDVVKRWINEAQEAASSDNIMVQYHALGVLYHLRKNDRLAVSKMLNKFTKSGLKSQFAYCMLIRIASRLLKETEDGHESPLFDFIESCLRNKHEMVIYEAASAIIHLPNCTARELAPAVSVLQLFCSSPKPALRYAAVRTLNKVAMKHPSAVTACNLDLENLITDSNRSIATLAITTLLKTGSESSVDRLMKQISSFVSEISDEFKVVVVQAISALCQKYPRKHSVMMTFLSNMLRDDGGFEYKRAIVDCIISIVEENPESKEAGLAHLCEFIEDCEHTVLATKILHLLGKEGPRTPVPSKYIRFIFNRVVLENEAVRAAAVSALAKFGAQNESLLPSILVLLQRCMMDTDDEVRDRATFYLNVLQQRQMALNATYIFNGLTVSVPGMEKALHQYTLEPSEKPFDMKSIPLAMAPVFEQKAEITLVATKPEKLAPSRQDIFQEQLAAIPEFLNIGPLFKSSEPVQLTEAETEYFVRCIKHMFTNHIVFQFDCTNTLNDQLLEKVTVQMEPSDSYEVLSCIPAPSLPYNQPGICYTLVRLPDDDPTAVAGSFSCTMKFTVRDCDPNTGVPDEDGYDDEYVLEDLEVTVSDHIQKVLKPNFAAAWEEVGDTFEKEETFALSSTKTLEEAVNNIITFLGMQPCERSDKVPENKNSHSLYLAGIFRGGYDLLVRSRLALADGVTMQVTVRSKERTPVDVILASVG
B5: barrier-to-autointegration factor (BAF), O75531 1-89 (protein)
chain: MTTSQKHRDFVAEPMGEKPVGSLAGIGEVLGKKLEERGFDKAYVVLGQFLVLKKDEDLFREWLKDTCGANAKQSRDCFGCLREWCDAFL

target: T1, ANKLE2–GFP (human); experiment: affinity purification with mass spectrometry; ANKLE2–GFP as bait on GFP-Trap_M magnetic beads; only ANKLE2 overexpressed; interactors by mass spectrometry (Table S2); conditions: not given

Row | binding | Molecule
1 | binds | B1

target: T2, HA-STREP-tagged SIRT2 (Sirtuin 2); experiment: affinity purification with mass spectrometry + proximity labelling; STREP-HA tandem affinity purification of HA-STREP–SIRT2 and BioID of N- and C-terminal BirA–SIRT2 fusions in stable doxycycline-induced Flp-In T-REx 293 cells; eight samples (whole-cell lysates, cytoplasmic and chromatin fractions); hits ranked by a global score (SAINT probability >0.98, fold change >10); conditions: not given

Row | binding | Molecule
2 | binds | B2
3 | binds | B3
4 | binds | B4

Target: T3, ANKLE2–GFP (human), Q86XL3
Experiment: affinity purification with mass spectrometry; ANKLE2–GFP as bait on GFP-Trap_M magnetic beads; only ANKLE2 overexpressed; interactors by mass spectrometry (Table S2)
Conditions: remark: other sources report otherwise

Row | binding | Molecule
5 | binds | B5

target: T2, HA-STREP-tagged SIRT2 (Sirtuin 2); experiment: affinity purification with mass spectrometry + proximity labelling; STREP-HA tandem affinity purification of HA-STREP–SIRT2 and BioID of N- and C-terminal BirA–SIRT2 fusions in stable doxycycline-induced Flp-In T-REx 293 cells; eight samples (whole-cell lysates, cytoplasmic and chromatin fractions); hits ranked by a global score (SAINT probability >0.98, fold change >10); conditions: not given; remark: another data set of the same source

Row | binding | Molecule
6 | binds | coatomer complex protein COPB1 (endogenous prey of the screen) (from UniProt P53618 1-953)
7 | binds | HDAC1 (endogenous prey of the screen) (from UniProt Q13547 1-482) (enzyme)
8 | binds | lamin B receptor (LBR) (from UniProt Q14739 1-615)
9 | binds | T-complex protein 1 subunit θ (TCPQ) (from UniProt P50990 1-548)
10 | binds | tubulin (β-4B chain; TBB4B) (from UniProt P68371 1-445)
11 | binds | RCC1 (endogenous prey of the screen) (from UniProt P18754 1-421)
12 | binds | condensin subunit CND2 (also known as NCAPH) (endogenous prey of the screen) (from UniProt Q15003 1-741)

From paper PMC5201015
